Assay results reported in paper PMC7819943, “Rice protein-binding microarrays: a tool to detect cis-acting elements near promoter regions in rice”.
This is one part of the list.

molecular target: T1, OsSMF1 (Oryza sativa, UniProt Q6ZLB0 1-436); assay: protein-binding microarray (RPBM); PBS, 2% BSA, 51.3 ng/ul salmon testes DNA, 50 uM zinc acetate, 200 nM TF, 25 C, 1 h; high values mean tight binding; settings: protein: recombinant; tags: N-terminal polyhistidine and DsRed monomer fusion (pET32a); chain copies: 2; label: CyDye5-dUTP incorporated in the synthesized complementary strand; 3' TTTTT single-stranded linker to array surface; dsDNA, one strand shown
T1 sequence: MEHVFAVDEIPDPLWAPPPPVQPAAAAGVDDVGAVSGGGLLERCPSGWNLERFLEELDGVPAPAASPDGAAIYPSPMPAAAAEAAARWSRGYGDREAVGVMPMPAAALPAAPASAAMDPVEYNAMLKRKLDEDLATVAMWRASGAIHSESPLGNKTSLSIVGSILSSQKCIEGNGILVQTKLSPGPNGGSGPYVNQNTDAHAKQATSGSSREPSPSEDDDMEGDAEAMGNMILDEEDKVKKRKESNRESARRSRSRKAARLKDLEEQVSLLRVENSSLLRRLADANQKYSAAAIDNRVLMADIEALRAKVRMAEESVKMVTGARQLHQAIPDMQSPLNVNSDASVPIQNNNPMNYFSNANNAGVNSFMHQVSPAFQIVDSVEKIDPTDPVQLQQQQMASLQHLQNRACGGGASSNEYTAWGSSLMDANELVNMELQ
In short: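 Transcription factors, each fused N-terminally to a polyhistidine tag and DsRed, were expressed in E. coli BL21-CodonPlus and purified on Ni–NTA. A custom Agilent array was made double-stranded by primer extension with Cy5-dUTP and blocked with 2% BSA. It was incubated with 200 nM protein in PBS, 2% BSA, salmon testes DNA and 50 µM zinc acetate at 25 °C for 1 h, then washed. The binding signal is per-feature fluorescence intensity (arbitrary units) read on an Axon 4000B scanner.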

| Sequence | binding signal |
| --- | --- |
| AACGTATCTCATGGGCGATCGATGACGACGTCGTGGCGTCCGGAGTCACCTAGTGCAG | 6660 fluorescence intensity (a.u.) |
| TTTCCTATTCGTAGCCAATGCAACTGCATCCTGGAACGATCGGAGTCACCTAGTGCAG | 19200 fluorescence intensity (a.u.) |
| CCAAAATTATTTCTAAAGCCACTATTGATGGAAGCAAAACCGGAGTCACCTAGTGCAG | 5210 fluorescence intensity (a.u.) |
| CGCTCGACTTCTCTTCTCTCATACACGTGTCATTAAATTTCGGAGTCACCTAGTGCAG | 8480 fluorescence intensity (a.u.) |
| CTGTTGATGCCATTGCAAAGGTACGATGTGCTTAGTGTTTCGGAGTCACCTAGTGCAG | 15500 fluorescence intensity (a.u.) |
| TTTGCCAAGCCACGGTTTTGTGGCTATGCGTTGGATGACGCGGAGTCACCTAGTGCAG | 4640 fluorescence intensity (a.u.) |
| GGTCTCATGTCCAGCTGTTTGAATTTTGTACCTGAAATATCGGAGTCACCTAGTGCAG | 3140 fluorescence intensity (a.u.) |
| TTGTATATTCCATCGTAATCAAAGGCATTGGCGCGCAAACCGGAGTCACCTAGTGCAG | 14500 fluorescence intensity (a.u.) |
| CAGACCCAACGTCGCCGTTGTTGGACCGCATGACGCAGCTCGGAGTCACCTAGTGCAG | 5180 fluorescence intensity (a.u.) |
| GATCTGGTGAGGTGTCCAAAGTTGCTAATGTCCAATTGCTCGGAGTCACCTAGTGCAG | 5410 fluorescence intensity (a.u.) |
| ACTAGACGCATGCATCATCTACTTGCCTAAATTAGAGAGACGGAGTCACCTAGTGCAG | 3440 fluorescence intensity (a.u.) |
| ATTTCCACCTCACCCAACCCTGCCACGTCAATCTATCATACGGAGTCACCTAGTGCAG | 13500 fluorescence intensity (a.u.) |
| CCTTGCCGCTGTACCAGCCGACGGTGACGATCTCAGCGCTCGGAGTCACCTAGTGCAG | 3260 fluorescence intensity (a.u.) |
| GGTTATCAGTTCTGTGGGTTCGACACGTGCAGGACTCAACCGGAGTCACCTAGTGCAG | 3200 fluorescence intensity (a.u.) |
| GCCGCAACTTCGCAAGGGTCGGAGTCGCACGCGAACCCGCCGGAGTCACCTAGTGCAG | 20800 fluorescence intensity (a.u.) |
| TACAAATAAAACATAACCAGACCATACTACAAGTCACTCCCGGAGTCACCTAGTGCAG | 3200 fluorescence intensity (a.u.) |
| GACTCTGTGCGCTCCATGTCATCCATCGTGCGGCCCACGTCGGAGTCACCTAGTGCAG | 4250 fluorescence intensity (a.u.) |
| TGCGTTTTGCAATCCTCTGTTTTACACTTAGGGCCCCTTTCGGAGTCACCTAGTGCAG | 20100 fluorescence intensity (a.u.) |
| ATGACTTACCTTCTACATGTTGACTTTCAGGAGTGACTGTCGGAGTCACCTAGTGCAG | 3980 fluorescence intensity (a.u.) |
| GAAGATAGTACTAACTATATTTTGTAACGGAGAGATTGTTCGGAGTCACCTAGTGCAG | 4130 fluorescence intensity (a.u.) |
| TGTACTTCCGATGACACGTCGACGCTCTTGTGTGTTGTGTCGGAGTCACCTAGTGCAG | 21400 fluorescence intensity (a.u.) |

| Sequence | binding signal |
| --- | --- |
| CCGACGAGCCGTCGCCACGTGGACGAGGCGGCGGCGGCGGCGGAGTCACCTAGTGCAG | 7180 fluorescence intensity (a.u.) |
| ACATTGACTCAGCCACCACGTCACCTAAAATCGGGAACAGCGGAGTCACCTAGTGCAG | 13000 fluorescence intensity (a.u.) |
| TAGTTGGCCAAAAGGTCCGCAGCCTGATGGCCCAGCCCACCGGAGTCACCTAGTGCAG | 30800 fluorescence intensity (a.u.) |
| GGCCGACCTCGATGATGAGTTGTCACCCTCAAATTGGGCCCGGAGTCACCTAGTGCAG | 6070 fluorescence intensity (a.u.) |
| GACAACAAACAACATTATCTCGATCCCGACCAGCTCAGCCCGGAGTCACCTAGTGCAG | 3840 fluorescence intensity (a.u.) |
| AGAAAGGAGGCTGATGTGGCCACGCTGACATGTGGGGCCCCGGAGTCACCTAGTGCAG | 8790 fluorescence intensity (a.u.) |
| GCACAGGCGTGTGGGGTTGGCAAAAGTAAAGCTGAAGGAGCGGAGTCACCTAGTGCAG | 3190 fluorescence intensity (a.u.) |
| GGCCCGCGGCGGAGTGCGGAGGGGAGGGGTGACGACGGAGCGGAGTCACCTAGTGCAG | 3450 fluorescence intensity (a.u.) |
| ATAGTTTCCATAAACTCCACATCATCAAGAAACTAGTACTCGGAGTCACCTAGTGCAG | 12600 fluorescence intensity (a.u.) |
| TTTCTGTGACGGCCCGCGTAGCTTCGGAGGAAGCGACCACCGGAGTCACCTAGTGCAG | 47700 fluorescence intensity (a.u.) |
| CCGTGCCATCTAAGCGCCACGTCAACCTCACAGACTAGGTCGGAGTCACCTAGTGCAG | 18400 fluorescence intensity (a.u.) |
| TGCGTCTCTGAAAAGATAATTCAGTGCCATGTGCTGCTGCCGGAGTCACCTAGTGCAG | 3270 fluorescence intensity (a.u.) |
| CTTCGATTCATTCCTCACGCACACACACTCTACTACTAGTCGGAGTCACCTAGTGCAG | 5080 fluorescence intensity (a.u.) |
| TAGGATATTTAGTTGTGCTTGCAATGATGTCATTGCTTGTCGGAGTCACCTAGTGCAG | 9340 fluorescence intensity (a.u.) |
| ACTAGTGGCAACGGCAGACGAGAGAAAGATGGTGCCGACCCGGAGTCACCTAGTGCAG | 23800 fluorescence intensity (a.u.) |
| TACAGCCCGCTTCTCCTCTCTCTCCTCCACCTCAGCATTTCGGAGTCACCTAGTGCAG | 7920 fluorescence intensity (a.u.) |
| CGCGGACTCGCATATCGCTCGCCAGCGCGGACACCCCTGCCGGAGTCACCTAGTGCAG | 4420 fluorescence intensity (a.u.) |
| ATTGCGTGACAAATACCATGACTTAAACGACACGTCGACCCGGAGTCACCTAGTGCAG | 8190 fluorescence intensity (a.u.) |
| TGACGTGTGGGTCCCACATGCTGAGTCAGCTAGTTTGACTCGGAGTCACCTAGTGCAG | 21100 fluorescence intensity (a.u.) |
| CGGCGTGGCCGCTGCGTCACGGGCGACTGCGCCAGCGTGCCGGAGTCACCTAGTGCAG | 5890 fluorescence intensity (a.u.) |
| GGCGCGCGTCGCGTCGGCGGCGTGGCGTGTCGCCCAGCGTCGGAGTCACCTAGTGCAG | 4590 fluorescence intensity (a.u.) |

Looked up one by one from above:

| Sequence | binding signal |
| --- | --- |
| ACATTGACTCAGCCACCACGTCACCTAAAATCGGGAACAGCGGAGTCACCTAGTGCAG | 13000 fluorescence intensity (a.u.) |
| AGAAAGGAGGCTGATGTGGCCACGCTGACATGTGGGGCCCCGGAGTCACCTAGTGCAG | 8790 fluorescence intensity (a.u.) |
| TGACGTGTGGGTCCCACATGCTGAGTCAGCTAGTTTGACTCGGAGTCACCTAGTGCAG | 21100 fluorescence intensity (a.u.) |
